The results in this text go back to patent CN108948203A.

Amino acid sequences for entries named in this document (tags omitted). Residues count along the entry.
UniProt Q15116, residues 25-170: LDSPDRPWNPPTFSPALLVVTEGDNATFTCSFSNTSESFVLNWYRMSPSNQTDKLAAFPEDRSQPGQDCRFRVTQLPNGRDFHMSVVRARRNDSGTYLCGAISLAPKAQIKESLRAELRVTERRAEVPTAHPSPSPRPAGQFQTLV

Assay [1] concerns the target 人PD-1胞外结构域的重组蛋白(PD-1) (human) (UniProt Q15116). The experiment in a line: Indirect ELISA (legend of figure 2). On the technique in general: ELISA stands for enzyme-linked immunosorbent assay.
Assay [2] has the same target. As to the kind of experiment: Indirect ELISA, PD-1 coated at 1 μg/mL, goat anti-rabbit IgG-HRP.

Results are given in words; binding and its absence hold for the method and conditions named. Some results given as binding are weak or reduced against the parent protein; the word gives no strength.

B1: NJDT003 (antibody)
heavy: QSVEESGGRLVTPGTPLTLTCTVSGFSLNSYNMNWVRQAPGKGLEWIGTIGKSGTTYFASWARGRFTISRTSTTVDLKMTSPTTEDTATYFCARDFAVDVGWGPGTLVTVSSGQPKAPSVFPLAPCCGDTPSSTVTLGCLVKGYLPEPVTVTWNSGTLTNGVRTFPSVRQSSGLYSLSSVVSVTSSSQPVTCNVAHPATNTKVDKTVAPSTCSKPMCPPPELPGGPSVFIFPPKPKDTLMISRTPEVTCVVVDVSQDDPEVQFTWYINNEQVRTARPPLREQQFNSTIRVVSTLPIAHQDWLRGKEFKCKVHNKALPAPIEKTISKARGQPLEPKVYTMGPPREELSSRSVSLTCMINGFYPSDISVEWEKNGKAEDNYKTTPTVLDSDGSYFLYSKLSVPTSEWQRGDVFTCSVMHEALHNHYTQKSISRSPGK
light: ADVVMTQTPSPVSAAVGGTVTISCQSSESVVDNDYLSWYQQKPGQPPKVLIYEISKLASGVPSRFSGSGSGTQFTLTISGVQCDDAATYYCAGAYASNRRAFGGGTEVVVKGDPVAPTVLIFPPAADQVATGTVTIVCVANKYFPDVTVTWEVDGTTQTTGIENSKTPQNSADCTYNLSSTLTLTSTQYNSHKEYTCKVTQGTTSVVQSFNRGDC
As for B1, the binding entry in assay [1] and in assay [2] was “binds” in each case.
